Test results from PubChem BioAssay AID2551 (National Center for Advancing Translational Sciences (NCATS), 2010).
About 17,000 (5.5%) of roughly 310,000 compounds were called active. This list was built around the results that the source calls inconclusive (neither active nor inactive); the mix of calls is not that of the screen. Calls come from the whole dose curve; as a rule, active = well fitted inhibition curve with a large enough effect; inconclusive = small, poorly fitted or top-dose-only effect, or effect the other way; inactive = no such curve, though single readings can be large or run the other way. Potencies of inconclusive entries are doubtful fits and often do not repeat.

Sequences of proteins named here, by UniProt entry; tags and fusion partners are left off. A change or cut given only in a name is not applied to a line headed by its entry.
UniProt P51450: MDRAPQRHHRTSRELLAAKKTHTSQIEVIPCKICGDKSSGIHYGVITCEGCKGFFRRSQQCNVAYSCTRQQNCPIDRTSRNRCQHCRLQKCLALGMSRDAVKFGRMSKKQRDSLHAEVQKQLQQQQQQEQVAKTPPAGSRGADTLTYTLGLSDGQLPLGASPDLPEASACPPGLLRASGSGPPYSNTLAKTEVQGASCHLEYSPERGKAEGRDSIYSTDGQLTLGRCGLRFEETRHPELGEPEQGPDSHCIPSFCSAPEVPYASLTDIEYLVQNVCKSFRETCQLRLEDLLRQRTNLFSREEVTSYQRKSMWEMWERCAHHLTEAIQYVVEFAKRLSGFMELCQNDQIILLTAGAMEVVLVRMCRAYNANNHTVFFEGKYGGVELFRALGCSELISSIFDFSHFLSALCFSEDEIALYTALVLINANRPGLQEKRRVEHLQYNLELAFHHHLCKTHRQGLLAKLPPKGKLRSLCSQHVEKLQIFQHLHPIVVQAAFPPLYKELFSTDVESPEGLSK

target: Nuclear receptor ROR-gamma (Mus musculus) (UniProt P51450); assay: qHTS for inhibitors of ROR gamma transcriptional activity; conditions: Drosophila S2 Gal4-RORgamma UAS-luciferase reporter, 20 h; activity change, negative = inhibition: at 53.6 µM (top of the series); note: nearly all actives have a fitted effect of over 60% in size
In short: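 Stable Schneider cell line, Gal4 DNA-binding domain fused to ROR gamma, UAS-luciferase. Cmpd 1 hr RT → CuSO4 700 uM final → 20 hr RT → luciferase reagent 10 min → luminescence.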
% is set by controls: 0 for no effect and ±100 for the full control effect; potency is the fitted concentration of half-maximal effect.

SMILES | Potency | activity change, negative = inhibition
NC(=S)NNC(=O)Nc1ccc(Cl)c(Cl)c1 | inconclusive: 11.2 µM [inhibitor, partial curve] | 
S=c1[nH]nc(-c2cccnc2)n1/N=C/c1ccco1 | inconclusive: 14.1 µM [inhibitor, single point] | 
Cc1nc2ccc(NC(=O)c3ccc([N+](=O)[O-])cc3[N+](=O)[O-])cc2s1 | inactive | 
CCN(Cc1ccccc1)C(=S)NC(=O)c1ccccc1Br | active: 0.794 µM | 
Cc1ccc(C)c(C(C)NC(=O)c2ccc(Br)o2)c1 (stereo unspecified) | inconclusive: 14.1 µM [inhibitor, single point] | 
COc1ccc(/C=N/NC(=O)C(=O)Nc2ccccn2)cc1OC | inactive | 
CCNC(=S)NNC(=O)c1csc2c1CCC(C)C2 (stereo unspecified) | inconclusive: 2 µM [inhibitor, full curve] | 
CCCC(=O)N1CCN(c2ccc(NC(=O)c3ccc([N+](=O)[O-])o3)cc2Cl)CC1 | active: 20 µM | 
CCc1cccc(CC)c1NC(=O)/C(C#N)=C/c1ccccc1C(F)(F)F | active: 11.2 µM | 
COc1cc(-c2cc(-c3ccc(O)cc3)nc(N)c2C#N)ccc1O | inactive | 
CC(C)C(=O)Nc1cc(-c2nc3ncccc3o2)ccc1Cl | inconclusive: 0.005 µM [activator, full curve, poor fit] | 
O=C1N(c2ccccc2)C[C@@H]2C[C@@H](c3cc4ccccc4o3)N3CCC[C@@]123 | inactive | 
CC(Sc1ncnc2sccc12)C(=O)Nc1ccc(C(N)=O)cc1 (stereo unspecified) | inactive | 
COC(=O)c1cc(Cl)c(NC(=O)/C=C/c2ccc(Cl)cc2)cc1OC | inconclusive: 35.5 µM [inhibitor, single point] | 
O=C(CSc1nc2ccccc2s1)c1ccc(O)cc1O | inconclusive: 8.91 µM [inhibitor, partial curve] | 
COc1ccc(-c2nnc(CSc3nc4ccccc4c(=O)n3CC(C)C)o2)cc1OC | inactive | 
O=C(N/N=C/c1cccc(OCc2ccccc2)c1)c1cccs1 | inconclusive: 35.5 µM [inhibitor, single point] | 
COc1ccccc1-n1c(C)nnc1SCC(=O)NCc1ccccc1 | inconclusive: 0.141 µM [inhibitor, full curve, poor fit] | 
CC(C)n1nc(C(=O)Nc2nnc(SCc3c(Cl)cccc3Cl)s2)c2ccccc2c1=O | inconclusive: 14.1 µM [inhibitor, single point] | 
Cc1ccc(NC(=O)c2cccc(S(=O)(=O)N3CCN(c4ccc(F)cc4)CC3)c2)nc1 | inactive | 
CC(C)c1ccc(NC2CCCN(C(=O)c3ccncc3)C2)cc1 (stereo unspecified) | active: 2.51 µM | 
CN(C)c1ccc(-c2nc(N(C)Cc3ccco3)c3ccccc3n2)cc1 | inactive | 
CC(=O)NC(c1ccc(C)cc1)c1cc(Cl)c2cccnc2c1O (stereo unspecified) | active: 1.12 µM | 
Cc1c(NC(=S)N/N=C/C=C/c2ccc([N+](=O)[O-])cc2)c(=O)n(-c2ccccc2)n1C | active: 3.16 µM | 
O=C(Nc1nc(-c2cc3ccccc3oc2=O)cs1)c1ccco1 | inactive | 
O=C(c1cccs1)N(Cc1ccco1)c1nc(-c2ccc(F)cc2)cs1 | inconclusive: 11.2 µM [activator, partial curve] | 

SMILES | Potency | activity change, negative = inhibition
Cc1ccc(NC(=O)CSc2ncnc3ccccc23)cc1S(=O)(=O)N1CCOCC1 | inactive | 
CCOC(=O)CNC(=O)CN1C(=O)CCS(=O)(=O)c2ccccc21 | inconclusive: 5.62 µM [inhibitor, partial curve, poor fit] | 
COc1ccccc1NS(=O)(=O)c1cc([N+](=O)[O-])ccc1N/N=C/c1sc(N2CCOCC2)nc1-c1ccccc1 | inactive | 
COc1ccc(CN(CC2CCCO2)S(=O)(=O)c2ccc(-n3cnnn3)c(OC)c2)cc1 (stereo unspecified) | inactive | 
O=C(Nc1nnc(-c2ccc3c(c2)OCCO3)o1)C1CCCCC1 | inactive | 
C#CCCCO/N=C1/C[C@@H](O)[C@@H](O)[C@@H]2[C@@H]3C(=O)N(C[C@@H]4CCCO4)C(=O)[C@H]3CC[C@@H]12 |  | inactive: 9.43% [at 10 µM]
Cc1nc(C(N)=O)c(N)n1CCc1ccccc1 | inactive | 
COc1ccc(-c2nc3cncnc3n(-c3ccccc3)c2=O)cc1 | inactive | 
CC(C)CNC(=O)c1cc([N+](=O)[O-])ccc1N1CCCCC1 | inactive | 
CC(c1ccccc1)n1cnc2ccccc21 (stereo unspecified) | active: 12.6 µM | 
COc1ncc2ncc(=O)n(C[C@H]3CCCO3)c2n1 | inactive | 
COC(=O)[C@@H]1C[C@H]1[C@@H](NC(C)=O)c1ccccc1 | inactive | 
O=C(CSc1nccn1-c1ccccc1)c1ccc(Br)cc1 | inconclusive: 6.31 µM [inhibitor, full curve, poor fit] | 
COc1ccc(-c2c[n+]3c(n2-c2ccccc2)SCC3)cc1 | inactive | 
CCOC(=O)c1sc(NC(=S)NC(=O)c2ccc(OC)cc2)nc1C | active: 6.31 µM | 
O=C1CCCN1CC(=O)N1CCCC(N2CCN(c3cccc(Cl)c3)CC2)C1 (stereo unspecified) | inactive | 
COc1cccc2c1OCC1COc3c(c(=O)n(C)c(=O)n3C)C21 (stereo unspecified) | inconclusive: 15.8 µM [inhibitor, single point] | 
C=CCn1c(-c2ccncc2)n[nH]c1=S | active: 10 µM | 
CCOc1ccc2[nH]c3c(NCCC(C)C)ncnc3c2c1 | inconclusive: 14.1 µM [inhibitor, single point] | 
O=C(NC(=S)NCCN1CCOCC1)c1ccc(Cl)cc1 | inconclusive: 35.5 µM [inhibitor, single point] | 
Cc1nnc(SCC(=O)Nc2sc3c(c2C#N)CCCCC3)n1N | inconclusive: 11.2 µM [activator, partial curve] | 
CCOC(=O)c1c(C)n(C)c2cc(-c3ccc(C)cc3)c(O)cc12 | inconclusive: 3.98 µM [activator, full curve, poor fit] | 
CN(C)c1ccc(C(=O)Nc2nnc(C3=COCCO3)o2)cc1 | active: 1.58 µM | 
COc1ccc(-c2ccnc(SCC(=O)Nc3ccccn3)n2)cc1 | inconclusive: 35.5 µM [activator, partial curve, poor fit] | 
COc1ccc(CCNC(=O)COc2ccc3c(C)cc(=O)oc3c2)cc1OC | inactive | 

As a short view, part of the list above.
SMILES | Potency | activity change, negative = inhibition
CCc1cccc(CC)c1NC(=O)/C(C#N)=C/c1ccccc1C(F)(F)F | active: 11.2 µM | 
COc1cc(-c2cc(-c3ccc(O)cc3)nc(N)c2C#N)ccc1O | inactive | 
CC(C)C(=O)Nc1cc(-c2nc3ncccc3o2)ccc1Cl | inconclusive: 0.005 µM [activator, full curve, poor fit] | 
